Assay results

Source: PubChem BioAssay AID912 (NCATS, 2007).

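Uptake of anthrax lethal toxin into cultured cells, read by FRET (460/530 nm ratio) and reported from the 460 nm channel; the cell line is not named here.
Each compound was tested as a concentration series from about 0.0005 to 40 µM.
The number is the fitted AC50 of the 460 nm signal alone; lower values mean a more potent effect. A falling signal goes with compounds filed as inhibitors or cytotoxic, a rising one with activators or fluorescent compounds (inferred from the filed classes).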

Values are in µM.
Common to all entries: measured here: 460 nm channel.
This is a side read-out of the assay, for part of the compounds, not drawn at random.
A potency from a partial, single-point or poor curve is only a rough figure.
The first word of each remark tells which way the curve ran; it can be opposite to the aim of the assay.

Compound: Brc1ccccc1-c1ccccc1
AC50 (µM): 31.62
curve as filed: falling, partial curve

Compound: Cc1cc(NC(=O)COC(=O)CCC(=O)c2ccc(F)cc2)no1
AC50 (µM): 0.1995
curve as filed: rising, partial curve

Compound: CCCC1C(c2ccco2)NC(c2ccco2)CC1(C)O (stereo not shown)
AC50 (µM): 10
curve as filed: falling, partial curve

Compound: CCN(CC)CC(O)Cn1c2ccccc2c2ccccc21 (stereo not shown)
AC50 (µM): 15.85
curve as filed: falling, partial curve

Compound: COc1ccc(-c2noc(-c3ccc(Br)o3)n2)cc1OC
AC50 (µM): 5.012
curve as filed: rising, single point

Compound: Cc1cc(C)nc(N(C#N)CC(=O)c2ccccc2)n1
AC50 (µM): 10
curve as filed: falling, partial curve

Compound: COc1ccccc1CNc1ccnc(-c2cccc(C#N)c2)n1
AC50 (µM): 0.1585
curve as filed: falling, full curve

Compound: CCCCC(c1nnnn1Cc1ccco1)N1CCN(c2nc3ccccc3s2)CC1 (stereo not shown)
AC50 (µM): 12.59
curve as filed: falling, partial curve

Compound: N#CC(C(=O)NCc1ccccc1)c1nc2ccccc2nc1N1CCCC1 (stereo not shown)
AC50 (µM): 12.59
curve as filed: rising, partial curve

Compound: COC1=C(OC)C(=O)c2ccccc2C1=O
AC50 (µM): 7.943
curve as filed: rising, full curve

Compound: N#CC1=C(SCC(=O)Nc2cccc3cccnc23)NC(=O)C(C#N)C12CCCCC2 (stereo not shown)
AC50 (µM): 10
curve as filed: falling, partial curve

Compound: CC(C)(CN1CCCCC1)NS(=O)(=O)c1ccc(Cl)cc1
AC50 (µM): 10
curve as filed: rising, partial curve, poor fit

Compound: COc1cc(Br)cc(/C=N/c2ncn[nH]2)c1O
AC50 (µM): 10
curve as filed: falling, partial curve

Compound: Nc1ccc2c(c1)C(=O)N(CC1CCCO1)C2=O (stereo not shown)
AC50 (µM): 10
curve as filed: rising, single point

Compound: Cc1ccc(C)o1
AC50 (µM): 31.62
curve as filed: falling, single point

Compound: CC1=C(\C=C/C(C)=C/C=C\C(C)=C\C(=O)O)C(C)(C)CCC1
AC50 (µM): 12.59
curve as filed: falling, single point

Compound: COc1cc(/C=C\C(=O)CC(=O)/C=C\c2ccc(O)c(OC)c2)ccc1O
AC50 (µM): 31.62
curve as filed: falling, single point

Compound: Cc1ccc2[nH]c3c(c2c1)CN(C(=O)CN1CCN(c2ccccc2F)CC1)CC3
AC50 (µM): 3.981
curve as filed: falling, single point

Compound: COc1cc(OC)c(C2=NOC(C(=O)Nc3cc(C)nn3-c3ccccc3)C2)cc1Cl (stereo not shown)
AC50 (µM): 12.59
curve as filed: falling, partial curve

Compound: O=C(O)CSc1ccc2ccccc2n1
AC50 (µM): 0.07943
curve as filed: falling, full curve

Compound: COc1cc(S(=O)(=O)N(Cc2ccc(C)cc2)C2CCCCC2)ccc1-n1cnnn1
AC50 (µM): 3.162
curve as filed: falling, full curve

Compound: Cc1ccc(S(=O)(=O)c2cc3c(=O)n4ccccc4nc3n(Cc3ccco3)c2=N)cc1C
AC50 (µM): 0.1995
curve as filed: rising, partial curve, poor fit

Compound: COc1ccc(S(=O)(=O)N2CCN(S(=O)(=O)c3ccc4c(c3)OCCO4)CC2)cc1
AC50 (µM): 0.1
curve as filed: falling, full curve

Compound: Cc1noc(C(=O)Nc2sc3c(c2C#N)CCC3)c1Cl
AC50 (µM): 1.585
curve as filed: falling, full curve, poor fit

Compound: CCOc1ccccc1-n1nnnc1SCc1nc2ccccc2s1
AC50 (µM): 12.59
curve as filed: falling, partial curve

Compound: Cc1ccc(C)n1-c1cccc(C(=O)O)c1
AC50 (µM): 0.003162
curve as filed: falling, full curve

Compound: Cc1nc2c([nH]1)C1(CCN(Cc3ccccc3)CC1)C(C#N)=C(N)O2
AC50 (µM): 0.02512
curve as filed: rising, full curve, poor fit

Compound: O=C(CSc1nc2ccccc2c(=O)n1Cc1ccco1)N1CCCCCC1
AC50 (µM): 0.7943
curve as filed: rising, full curve

3 of the entries, repeated:

| Compound | AC50 (µM) | curve as filed |
|---|---|---|
| `COc1ccc(S(=O)(=O)N2CCN(S(=O)(=O)c3ccc4c(c3)OCCO4)CC2)cc1` | 0.1 | falling, full curve |
| `Cc1cc(NC(=O)COC(=O)CCC(=O)c2ccc(F)cc2)no1` | 0.1995 | rising, partial curve |
| `Cc1nc2c([nH]1)C1(CCN(Cc3ccccc3)CC1)C(C#N)=C(N)O2` | 0.02512 | rising, full curve, poor fit |